This test has as its target Xanthomonas outer protein S (XopS) fused to the GAL4 DNA-binding domain (Xanthomonas campestris pv. vesicatoria (strain 85-10)). Nature of the test: two-hybrid; direct assay: XopS fused to GAL4 DNA-BD, WRKY proteins fused to GAL4 AD, yeast strain Y190; growth on -LTH (HIS3 reporter) and LacZ filter assay.

Results are given in words; binding and its absence hold for the method and conditions named. Binding can be weak; no strength is given. Tags and fused reporters may be left off the sequences shown.

B1: Arabidopsis thaliana WRKY40 fused to the GAL4 activation domain (protein, UniProt Q9SAH7 1-302)
chain: MDQYSSSLVDTSLDLTIGVTRMRVEEDPPTSALVEELNRVSAENKKLSEMLTLMCDNYNVLRKQLMEYVNKSNITERDQISPPKKRKSPAREDAFSCAVIGGVSESSSTDQDEYLCKKQREETVVKEKVSRVYYKTEASDTTLVVKDGYQWRKYGQKVTRDNPSPRAYFKCACAPSCSVKKKVQRSVEDQSVLVATYEGEHNHPMPSQIDSNNGLNRHISHGGSASTPVAANRRSSLTVPVTTVDMIESKKVTSPTSRIDFPQVQKLLVEQMASSLTKDPNFTAALAAAVTGKLYQQNHTEK
As to B1, the binding result is “binds”.

The record behind these values is publication PMC9048924.
